Measured values: publication doi:10.1101/2023.06.23.544932
These are yes or no findings as the source states them, for the method shown. For some of these results: Binding seen in cells or lysates may run through a third protein. Some entries that bind do so weakly or less than the wild type.

Chains of the proteins cited; added tags and fusions are not shown. Lines headed by an entry give the natural chain unless they say otherwise; changes in a name come on top. Residues count along the entry.
UniProt Q8S307: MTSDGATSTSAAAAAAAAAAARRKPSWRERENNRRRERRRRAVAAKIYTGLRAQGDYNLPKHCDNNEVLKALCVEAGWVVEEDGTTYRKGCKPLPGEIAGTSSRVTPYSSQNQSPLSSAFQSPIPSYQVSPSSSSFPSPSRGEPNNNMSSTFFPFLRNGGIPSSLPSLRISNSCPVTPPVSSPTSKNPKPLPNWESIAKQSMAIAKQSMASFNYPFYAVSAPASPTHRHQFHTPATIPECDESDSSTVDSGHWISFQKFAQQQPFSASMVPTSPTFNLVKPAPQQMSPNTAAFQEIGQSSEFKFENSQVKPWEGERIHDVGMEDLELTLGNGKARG
N-terminal domain of BZR1 (amino acids 1-109), yeast two-hybrid fusion: residues 1-109 of Q8S307
UniProt Q6EVK6: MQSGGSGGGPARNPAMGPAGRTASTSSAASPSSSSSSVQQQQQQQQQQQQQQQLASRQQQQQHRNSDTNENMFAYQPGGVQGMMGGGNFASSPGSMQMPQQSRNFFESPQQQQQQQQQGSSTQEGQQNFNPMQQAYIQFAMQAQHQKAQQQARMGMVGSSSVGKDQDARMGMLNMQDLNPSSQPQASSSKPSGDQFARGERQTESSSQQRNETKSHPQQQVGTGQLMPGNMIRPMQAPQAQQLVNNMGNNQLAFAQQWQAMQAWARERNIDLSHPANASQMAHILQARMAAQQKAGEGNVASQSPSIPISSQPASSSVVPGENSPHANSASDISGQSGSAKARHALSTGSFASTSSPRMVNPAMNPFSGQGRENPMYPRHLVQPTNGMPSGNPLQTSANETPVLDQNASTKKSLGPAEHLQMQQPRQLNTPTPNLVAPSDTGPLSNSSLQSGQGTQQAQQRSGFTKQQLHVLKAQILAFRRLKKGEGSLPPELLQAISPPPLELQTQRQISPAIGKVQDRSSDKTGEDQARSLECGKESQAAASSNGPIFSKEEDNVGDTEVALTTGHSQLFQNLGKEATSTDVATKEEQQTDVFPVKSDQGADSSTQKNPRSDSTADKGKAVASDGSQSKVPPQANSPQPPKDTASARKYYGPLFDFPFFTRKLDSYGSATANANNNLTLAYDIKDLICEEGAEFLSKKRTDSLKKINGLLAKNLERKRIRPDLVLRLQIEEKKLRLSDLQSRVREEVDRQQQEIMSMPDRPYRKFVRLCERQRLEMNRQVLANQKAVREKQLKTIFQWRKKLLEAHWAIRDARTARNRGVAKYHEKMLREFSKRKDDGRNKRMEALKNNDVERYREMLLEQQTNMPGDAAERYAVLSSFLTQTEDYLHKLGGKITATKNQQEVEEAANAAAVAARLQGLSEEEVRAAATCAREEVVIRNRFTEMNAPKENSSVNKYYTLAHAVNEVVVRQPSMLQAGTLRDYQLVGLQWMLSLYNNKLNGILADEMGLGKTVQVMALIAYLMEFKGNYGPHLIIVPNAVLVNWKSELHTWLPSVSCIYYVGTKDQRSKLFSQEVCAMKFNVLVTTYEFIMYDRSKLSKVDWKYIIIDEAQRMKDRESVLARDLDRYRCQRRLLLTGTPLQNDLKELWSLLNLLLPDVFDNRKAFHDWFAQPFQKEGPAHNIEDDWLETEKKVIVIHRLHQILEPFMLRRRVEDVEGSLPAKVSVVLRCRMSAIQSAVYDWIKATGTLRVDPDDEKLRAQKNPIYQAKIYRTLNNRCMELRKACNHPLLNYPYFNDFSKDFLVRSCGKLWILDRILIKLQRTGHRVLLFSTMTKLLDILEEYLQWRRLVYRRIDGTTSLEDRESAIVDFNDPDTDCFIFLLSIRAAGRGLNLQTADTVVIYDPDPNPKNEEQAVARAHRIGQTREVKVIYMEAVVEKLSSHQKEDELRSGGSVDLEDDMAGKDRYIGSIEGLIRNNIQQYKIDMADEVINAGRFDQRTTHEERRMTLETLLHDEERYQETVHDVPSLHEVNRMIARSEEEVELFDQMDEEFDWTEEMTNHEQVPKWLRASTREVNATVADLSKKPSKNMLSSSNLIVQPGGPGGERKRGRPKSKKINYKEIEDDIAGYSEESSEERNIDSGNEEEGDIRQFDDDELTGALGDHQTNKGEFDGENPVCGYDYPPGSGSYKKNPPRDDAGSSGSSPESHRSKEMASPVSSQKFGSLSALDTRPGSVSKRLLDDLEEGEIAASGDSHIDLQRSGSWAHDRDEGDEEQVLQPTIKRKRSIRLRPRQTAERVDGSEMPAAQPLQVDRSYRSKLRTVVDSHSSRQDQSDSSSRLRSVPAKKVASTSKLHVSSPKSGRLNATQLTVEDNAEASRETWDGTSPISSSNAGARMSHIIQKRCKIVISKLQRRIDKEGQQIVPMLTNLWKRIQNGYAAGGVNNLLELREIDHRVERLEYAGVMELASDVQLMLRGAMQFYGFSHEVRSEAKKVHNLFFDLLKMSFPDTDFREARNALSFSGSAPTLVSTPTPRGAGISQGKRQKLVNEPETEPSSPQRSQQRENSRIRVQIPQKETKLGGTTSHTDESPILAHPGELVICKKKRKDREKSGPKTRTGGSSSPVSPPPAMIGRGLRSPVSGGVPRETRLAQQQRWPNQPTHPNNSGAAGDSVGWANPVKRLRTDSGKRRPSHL

Key:
[1] = biological target: BZR1-3xFLAG (Arabidopsis thaliana) (UniProt Q8S307); assay: co-IP
[2] = biological target: BZR1-HA (Arabidopsis thaliana) (UniProt Q8S307); assay: co-IP
[3] = biological target: N-terminal YFP-fused BZR1 (Arabidopsis thaliana) (UniProt Q8S307); assay: split reporter
[4] = biological target: N-terminal domain of BZR1 (amino acids 1-109), yeast two-hybrid fusion (Arabidopsis thaliana) (UniProt Q8S307); assay: two-hybrid

Substance: BRM-GFP (from UniProt Q6EVK6 1-2193)
- binding [1]: binds

Substance: BRM-N-GFP (BRM N terminal, 1-952 amino acids) (from UniProt Q6EVK6 1-952) (domain or fragment)
- binding [2]: binds

Substance: C-terminal YFP-fused BRM (from UniProt Q6EVK6 1-2193)
- binding [3]: binds

Substance: N-terminal part of BRM (amino acids 1-952), yeast two-hybrid fusion (from UniProt Q6EVK6 1-952) (domain or fragment)
- binding [4]: binds
